According to PubChem BioAssay AID1688 (National Center for Advancing Translational Sciences (NCATS), 2009):
Among all 220,000 compounds or so, about 2,400 (1.1%) were called active. This list was built around the results that the source calls inconclusive (neither active nor inactive); the mix of calls is not that of the screen. The call rests on the fitted dose curve; in most records, active means well fitted inhibition curve with a large enough effect; inconclusive means small, poorly fitted or top-dose-only effect, or effect the other way; inactive means no such curve, though single readings can be large or run the other way. Potencies beside an inconclusive call are fits to weak or partial responses and may not hold up.

Experiment: qHTS Multiplex Assay to Identify Dual Action Probes in a Cell Model of Huntington: Aggregate Formation (GFP); further: nearly all actives have a fitted effect of over 60% in size
Conditions: PC12 HttQ103-GFP aggregates, Acumen cytometry, 40 h; series mostly up to 46.1 µM
Procedure, shortened: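 Quantitative HTS on tebufenozide-induced (100 nM) PC12 cells stably expressing polyQ103 Huntingtin exon 1–GFP. Reduction of bright GFP aggregates, detected by laser scanning cytometry after lysis, identified actives across the titration.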
Potency means the concentration at half of the fitted maximal effect.

SMILES | Potency
Cc1ccc(OCCN2C(=O)c3ccccc3C2=O)c([N+](=O)[O-])c1 | inactive
Cc1ccc(S(=O)(=O)NCCCCCC(N)=O)cc1 | inactive
CCn1c2ccccc2n2c(=O)c(=O)n(CC(=O)Nc3ccc(C(C)C)cc3)nc12 | inconclusive: 3.16 µM [activator, partial curve]
c1ccc2c(c1)oc1c(Nc3ccc(CN4CCOCC4)cc3)ncnc12 | inactive
CC(C)(C)C(=O)NC(=S)Nc1ccc(F)cc1 | inactive
CCOC(=O)C1CCN(c2c(NCc3ccc(C(=O)NC4CCCC4)cc3)c(=O)c2=O)CC1 | inconclusive: 0.708 µM [inhibitor, single point]
CC(O)CNc1nc2sc3c(c2c(=O)n1CCc1ccccc1)CCCCC3 (stereo not given) | inconclusive: 35.5 µM [inhibitor, single point]
COc1ccccc1Oc1ccc(S(=O)(=O)Nc2cccnc2)cc1 | active: 11.2 µM
COc1ccc(NC(=O)COC(=O)Cc2ccccc2[N+](=O)[O-])cc1OC | inactive
COCCCNS(=O)(=O)c1ccc2c3c(cccc13)C(=O)S2 | inconclusive: 35.5 µM [inhibitor, partial curve]
Nc1ccc(C23CC4CC(CC(O)(C4)C2)C3)cc1 | inactive
CCOc1cccc2cc(C(=O)N3CCc4ccccc4C3)c(=O)oc12 | inactive
COC(=O)C1=C(C)NC(=O)/C1=C\c1cc(C)n(-c2ccccc2F)c1C | inconclusive: 5.62 µM [activator, full curve, poor fit]
CCn1c(=O)cc(OCC(=O)NCc2ccc(C)o2)c2ccccc21 | inconclusive: 4.47 µM [activator, single point]
O=C(/C=C/c1cccc([N+](=O)[O-])c1)Nc1cccc(NC(=O)c2ccco2)c1 | inconclusive: 35.5 µM [inhibitor, single point]
COC(=O)Nc1ncc(CN2CCC(c3ccccc3)CC2)s1 | inconclusive: 3.55 µM [activator, single point]
O=C1CC(C(=O)N(CC2CCCO2)C(C(=O)NC2CCCCC2)c2ccncc2)CS1 (stereo not given) | inconclusive: 25.1 µM [inhibitor, single point]
O=[N+]([O-])c1cc(/C=N/Nc2nc(N3CCOCC3)nc(N3CCOCC3)n2)ccc1Cl | inconclusive: 3.98 µM [inhibitor, single point]
Cc1nn(-c2ccccc2)c2sc(C(=O)N(CC(=O)NC(C)(C)C)Cc3ccco3)cc12 | inactive
COC(=O)c1ccc(NC(=O)C(C)N2C(=O)c3ccccc3C2=O)cc1 (stereo not given) | inconclusive: 3.16 µM [inhibitor, partial curve]

An excerpt of these results, as tab-separated lines:
SMILES	Potency
COc1ccccc1Oc1ccc(S(=O)(=O)Nc2cccnc2)cc1	active: 11.2 µM
COc1ccc(NC(=O)COC(=O)Cc2ccccc2[N+](=O)[O-])cc1OC	inactive
